These are yes or no findings as the source states them, for the method shown. Binding calls can cover weak binding; strength is not graded here. For some assays here: Tags and fused reporters may be left off the sequences shown. For some assays here: In cells and extracts the contact can be indirect.

Amino acid sequences for entries named in this document (tags omitted).
UniProt Q94517: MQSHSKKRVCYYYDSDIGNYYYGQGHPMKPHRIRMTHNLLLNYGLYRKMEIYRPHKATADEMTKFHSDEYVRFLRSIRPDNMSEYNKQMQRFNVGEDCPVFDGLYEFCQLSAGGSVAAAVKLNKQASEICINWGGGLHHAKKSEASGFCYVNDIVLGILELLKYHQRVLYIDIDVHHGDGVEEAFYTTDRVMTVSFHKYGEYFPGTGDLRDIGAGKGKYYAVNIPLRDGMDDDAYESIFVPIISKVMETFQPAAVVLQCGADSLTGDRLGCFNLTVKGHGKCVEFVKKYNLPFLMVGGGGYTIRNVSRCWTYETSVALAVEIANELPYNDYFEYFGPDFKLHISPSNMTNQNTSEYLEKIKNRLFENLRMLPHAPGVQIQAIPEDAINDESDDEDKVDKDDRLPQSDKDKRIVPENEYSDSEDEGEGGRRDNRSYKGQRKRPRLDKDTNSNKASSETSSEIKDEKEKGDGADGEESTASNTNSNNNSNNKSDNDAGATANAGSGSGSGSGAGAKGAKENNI
UniProt O97159: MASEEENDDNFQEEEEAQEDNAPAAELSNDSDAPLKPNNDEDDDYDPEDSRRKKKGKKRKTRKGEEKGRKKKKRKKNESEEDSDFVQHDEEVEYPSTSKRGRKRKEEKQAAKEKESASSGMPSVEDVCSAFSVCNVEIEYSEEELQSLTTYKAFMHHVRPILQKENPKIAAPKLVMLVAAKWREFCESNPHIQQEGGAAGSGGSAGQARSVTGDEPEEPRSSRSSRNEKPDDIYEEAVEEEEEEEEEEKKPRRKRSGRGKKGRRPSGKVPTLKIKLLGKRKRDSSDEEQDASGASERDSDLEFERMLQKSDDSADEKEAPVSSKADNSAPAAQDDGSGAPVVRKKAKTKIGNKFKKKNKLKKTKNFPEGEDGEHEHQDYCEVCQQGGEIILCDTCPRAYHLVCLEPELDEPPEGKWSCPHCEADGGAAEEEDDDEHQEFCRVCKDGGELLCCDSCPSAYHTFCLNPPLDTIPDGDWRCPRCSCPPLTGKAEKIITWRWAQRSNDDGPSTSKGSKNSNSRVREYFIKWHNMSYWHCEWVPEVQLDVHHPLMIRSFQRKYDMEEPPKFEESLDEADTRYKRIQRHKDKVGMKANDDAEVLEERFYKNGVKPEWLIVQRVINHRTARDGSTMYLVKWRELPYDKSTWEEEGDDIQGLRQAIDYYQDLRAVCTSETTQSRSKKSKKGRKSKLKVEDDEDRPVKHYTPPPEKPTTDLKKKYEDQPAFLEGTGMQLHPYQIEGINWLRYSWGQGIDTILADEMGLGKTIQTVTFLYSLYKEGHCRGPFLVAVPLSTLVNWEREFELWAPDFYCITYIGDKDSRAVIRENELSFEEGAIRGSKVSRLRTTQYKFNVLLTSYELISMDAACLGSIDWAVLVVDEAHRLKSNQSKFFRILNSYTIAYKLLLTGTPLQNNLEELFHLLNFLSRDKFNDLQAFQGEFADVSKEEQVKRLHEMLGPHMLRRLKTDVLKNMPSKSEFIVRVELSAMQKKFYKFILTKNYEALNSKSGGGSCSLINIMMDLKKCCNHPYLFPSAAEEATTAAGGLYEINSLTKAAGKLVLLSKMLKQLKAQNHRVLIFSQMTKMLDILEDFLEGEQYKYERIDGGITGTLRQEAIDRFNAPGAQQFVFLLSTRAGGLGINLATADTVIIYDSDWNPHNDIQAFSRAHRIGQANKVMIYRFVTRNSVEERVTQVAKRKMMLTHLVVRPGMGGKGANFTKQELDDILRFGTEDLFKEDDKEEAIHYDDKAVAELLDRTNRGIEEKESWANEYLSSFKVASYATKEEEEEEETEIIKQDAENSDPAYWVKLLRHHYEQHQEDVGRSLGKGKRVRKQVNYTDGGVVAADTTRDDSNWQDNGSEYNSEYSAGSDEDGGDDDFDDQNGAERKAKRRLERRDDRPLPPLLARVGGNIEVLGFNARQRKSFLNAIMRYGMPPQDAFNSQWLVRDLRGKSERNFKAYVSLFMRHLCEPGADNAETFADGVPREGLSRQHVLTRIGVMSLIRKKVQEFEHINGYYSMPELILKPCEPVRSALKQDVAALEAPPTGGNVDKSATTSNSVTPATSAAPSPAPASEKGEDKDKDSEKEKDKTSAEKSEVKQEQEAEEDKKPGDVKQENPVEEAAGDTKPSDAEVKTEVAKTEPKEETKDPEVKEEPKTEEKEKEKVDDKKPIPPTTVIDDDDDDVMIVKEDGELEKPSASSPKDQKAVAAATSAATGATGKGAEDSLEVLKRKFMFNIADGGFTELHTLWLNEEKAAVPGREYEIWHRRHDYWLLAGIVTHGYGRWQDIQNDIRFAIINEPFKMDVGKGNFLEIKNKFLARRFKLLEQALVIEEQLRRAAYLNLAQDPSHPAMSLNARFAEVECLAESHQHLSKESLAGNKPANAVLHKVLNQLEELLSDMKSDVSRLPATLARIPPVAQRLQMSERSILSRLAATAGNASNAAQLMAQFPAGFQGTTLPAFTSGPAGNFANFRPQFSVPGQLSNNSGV

The text below walks through data of paper PMC2500188.

Experiment [1] deals with Drosophila Smyd4 (dSmyd4), FLAG-tagged (Drosophila) (UniProt Q7JZG5). The experiment is described as follows: co-IP; S2 cells co-expressing dSmyd4-FLAG and HDAC-HA, lysed in IPB250 (20 mM Tris pH 8.0, 250 mM NaCl, 0.4% NP-40); anti-FLAG M2 sepharose 2 h at 4°C, FLAG peptide elution, anti-HA blot.
The target is the same in experiment [2]. The experiment is described as follows: co-IP; S2 cells co-expressing dSmyd4-FLAG and an HA-tagged co-repressor component, lysed in IPB150 (20 mM Tris pH 8.0, 150 mM NaCl, 0.1% NP-40); anti-FLAG M2 sepharose 2 h at 4°C, FLAG peptide elution, anti-HA blot.
The target of experiment [3] is GST fusion of amino acids 208-377 of dSmyd4 (GST-MYND) (Drosophila) (UniProt Q7JZG5). The experiment can be described thus: pull-down; 10 µg GST-MYND on glutathione sepharose with 35S-labelled in vitro translated protein in PDB (20 mM Tris pH 8.0, 200 mM NaCl, 50 mM KCl, 0.5% Triton X-100), 2 h at 4°C; autoradiography; only the target purified.
For experiment [4] the target is unchanged. The experiment can be described thus: pull-down; 10 µg GST-MYND on glutathione sepharose with 20 µg purified his6-tagged HDAC in HisPDB (20 mM Tris pH 8.0, 150 mM NaCl, 50 mM KCl, 0.25% Triton X-100), 2 h at 4°C; anti-polyhis blot; both purified.

As to dHDAC1-HA (from UniProt Q94517 1-521), in experiment [1], the binding entry is listed as “binds”. As to dMi2-HA (from UniProt O97159 1-1982), the binding result in experiment [2] is reported as “no binding”.

As for “in vitro translated radiolabelled dHDAC1 (from UniProt Q94517 1-521)”, the binding entry in experiment [3] is recorded as “binds”. Regarding “recombinant dHDAC1-his6 (from UniProt Q94517 1-521)”, the binding result in experiment [4] is given as “binds”.

B1: Ebi-HA (protein, UniProt Q95RJ9 1-700)
chain: MSFSSDEVNFLVYRYLQESGFLHSAYVFGIESHISQSNINGALVPPAALLTILQKGLLYTEVEWSVGEDGEVARPIEGLSLIDAVMPEVKPLKPIVKTEPGKPGAVDSSAPAGGNQNNNAKPEIKIEPGTGVAGSAGGNKIAGSTTGTSTPTDQSASEVDSSGNAANNAGGTYAGNNGAGGNQASTGGSNSTSTPAGGDLAAPGASQKKSQNSNEAGSSSSGNAGNANATSTDDAASSTSTNGNSSTSSSVEQPTSGLTPAGGTVSTSNPDAAASGGASTATGSKAPSGAVTIRVGAQGNNVQSGSSNAQSSAPSGTISSSTSGGAGTPAALVPMDIDENIEIPESKARVLRGHESEVFICAWNPSRDLLASGSGDSTARIWDMSDANTNSNQLVLRHCIQKGGAEVPSNKDVTSLDWNCDGSLLATGSYDGYARIWKTDGRLASTLGQHKGPIFALKWNKCGNYILSAGVDKTTIIWDASTGQCTQQFAFHSAPALDVDWQTNQAFASCSTDQRIHVCRLGVNEPIKTFKGHTNEVNAIKWCPQGQLLASCSDDMTLKIWSMNRDRCCHDLQAHSKEIYTIKWSPTGPGTNNPNTNLILASASFDSTVRLWDVERGSCIHTLTKHTEPVYSVAFSPDGKHLASGSFDKCVHIWSTQTGQLVHSYKGTGGIFEVCWNSKGTKVGASASDGSVFVLDLRKF
In the case of B1, the binding result in experiment [2] is given as “binds”.

B2: dHDAC3-HA (protein, UniProt Q7KTS4 1-438)
chain: MTDRRVSYFYNADVGNFHYGAGHPMKPQRLAVTHSLVMNYGLHKKMKIYRPYKASAQDMLRFHSDEYIAYLQQVTPQNIQCNSVAYTKYLAHFSVGEDCPVFDGLFDFCAMYTGASLEGAQKLNHNHSDICINWSGGLHHAKKFEASGFCYVNDIVIGILELLKYHPRVLYIDIDVHHGDGVQEAFYLTDRVMTASFHKYGNYFFPGTGDMYEIGAESGRYYSVNVPLKEGIDDQSYFQVFKPIISAIMDFYRPTAIVLQCGADSLAGDRLGCFSLSTKGHGECVKFVKELNVPTLVVGGGGYTLRNVARCWTHETSLLVDQDIENDLPATEYYDFFAPDFTLHPEINSRQDNANSKQYLELIVKHVYENLKMCQHSPSVQMVQTPPDVDLEELRSNREEASDPDVRISVADEDKLVDAKNEFYDGDQDQDKPDSAES
Take B2: the binding result in experiment [1] is listed as “binds”.

B3: recombinant dHDAC3-his6 (protein, UniProt Q7KTS4 1-438)
chain: MTDRRVSYFYNADVGNFHYGAGHPMKPQRLAVTHSLVMNYGLHKKMKIYRPYKASAQDMLRFHSDEYIAYLQQVTPQNIQCNSVAYTKYLAHFSVGEDCPVFDGLFDFCAMYTGASLEGAQKLNHNHSDICINWSGGLHHAKKFEASGFCYVNDIVIGILELLKYHPRVLYIDIDVHHGDGVQEAFYLTDRVMTASFHKYGNYFFPGTGDMYEIGAESGRYYSVNVPLKEGIDDQSYFQVFKPIISAIMDFYRPTAIVLQCGADSLAGDRLGCFSLSTKGHGECVKFVKELNVPTLVVGGGGYTLRNVARCWTHETSLLVDQDIENDLPATEYYDFFAPDFTLHPEINSRQDNANSKQYLELIVKHVYENLKMCQHSPSVQMVQTPPDVDLEELRSNREEASDPDVRISVADEDKLVDAKNEFYDGDQDQDKPDSAES
For the molecule B3, the binding result in experiment [4] is “binds”.

B4: in vitro translated radiolabelled dHDAC3 (protein, UniProt Q7KTS4 1-438)
chain: MTDRRVSYFYNADVGNFHYGAGHPMKPQRLAVTHSLVMNYGLHKKMKIYRPYKASAQDMLRFHSDEYIAYLQQVTPQNIQCNSVAYTKYLAHFSVGEDCPVFDGLFDFCAMYTGASLEGAQKLNHNHSDICINWSGGLHHAKKFEASGFCYVNDIVIGILELLKYHPRVLYIDIDVHHGDGVQEAFYLTDRVMTASFHKYGNYFFPGTGDMYEIGAESGRYYSVNVPLKEGIDDQSYFQVFKPIISAIMDFYRPTAIVLQCGADSLAGDRLGCFSLSTKGHGECVKFVKELNVPTLVVGGGGYTLRNVARCWTHETSLLVDQDIENDLPATEYYDFFAPDFTLHPEINSRQDNANSKQYLELIVKHVYENLKMCQHSPSVQMVQTPPDVDLEELRSNREEASDPDVRISVADEDKLVDAKNEFYDGDQDQDKPDSAES
modifications: 35S-labelled
With B4, the binding result in experiment [3] was “binds”.
